Results from PMC5399188.
No constants are given. Whether binding was seen depends on the method and setting. In cells and extracts the contact can be indirect. Some entries that bind do so weakly or less than the wild type. Where a sequence is shown, tags or fusion partners need not be part of it.

Chains of the proteins cited; added tags and fusions are not shown.
UniProt Q15796: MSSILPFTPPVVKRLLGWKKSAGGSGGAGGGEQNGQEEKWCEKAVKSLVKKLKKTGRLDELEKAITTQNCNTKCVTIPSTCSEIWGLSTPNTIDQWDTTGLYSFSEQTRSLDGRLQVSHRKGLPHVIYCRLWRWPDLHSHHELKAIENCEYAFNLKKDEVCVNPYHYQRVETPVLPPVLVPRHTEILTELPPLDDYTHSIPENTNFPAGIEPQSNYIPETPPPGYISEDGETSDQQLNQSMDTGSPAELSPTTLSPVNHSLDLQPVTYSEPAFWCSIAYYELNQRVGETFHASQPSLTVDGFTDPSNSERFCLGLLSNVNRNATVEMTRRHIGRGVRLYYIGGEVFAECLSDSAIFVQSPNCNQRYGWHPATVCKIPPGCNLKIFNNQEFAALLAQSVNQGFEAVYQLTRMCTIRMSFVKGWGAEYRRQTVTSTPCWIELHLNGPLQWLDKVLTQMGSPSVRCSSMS
UniProt P84022: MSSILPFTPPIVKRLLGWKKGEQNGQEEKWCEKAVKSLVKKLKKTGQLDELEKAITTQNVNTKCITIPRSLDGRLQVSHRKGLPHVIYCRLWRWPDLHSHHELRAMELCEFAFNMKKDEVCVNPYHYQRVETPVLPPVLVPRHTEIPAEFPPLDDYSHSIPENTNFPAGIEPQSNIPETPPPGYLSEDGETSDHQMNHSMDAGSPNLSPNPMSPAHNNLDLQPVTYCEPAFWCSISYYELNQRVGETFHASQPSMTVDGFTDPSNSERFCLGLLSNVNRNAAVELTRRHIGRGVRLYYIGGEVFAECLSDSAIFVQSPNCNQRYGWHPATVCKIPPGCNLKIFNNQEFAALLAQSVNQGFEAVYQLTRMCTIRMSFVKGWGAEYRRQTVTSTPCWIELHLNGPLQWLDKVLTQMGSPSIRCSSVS

Assays:
[1] = biological target: T1, FLAG-VN173-AIMP1 (aminoacyl-tRNA synthetase-interacting multifunctional protein 1) (UniProt Q12904); test: co-IP; HEK293 cells transfected with FLAG-VN173-AIMP1 and HA-VC155-SMAD2/3; RIPA lysate (300 ug) precipitated with anti-FLAG antibody and protein G agarose at 4 C, blotted with anti-HA or anti-FLAG
T1 sequence: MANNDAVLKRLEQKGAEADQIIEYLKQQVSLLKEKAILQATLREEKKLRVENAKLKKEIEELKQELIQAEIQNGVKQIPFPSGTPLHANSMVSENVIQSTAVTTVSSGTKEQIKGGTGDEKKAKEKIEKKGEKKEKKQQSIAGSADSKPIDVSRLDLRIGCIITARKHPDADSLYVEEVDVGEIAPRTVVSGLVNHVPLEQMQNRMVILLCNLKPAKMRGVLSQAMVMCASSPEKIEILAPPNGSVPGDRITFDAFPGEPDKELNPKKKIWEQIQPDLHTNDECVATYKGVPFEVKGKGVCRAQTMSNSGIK

[2] = biological target: T1, FLAG-VN173-AIMP1 (aminoacyl-tRNA synthetase-interacting multifunctional protein 1); test: split reporter; BiFC competition in HEK293 cells: FLAG-VN173-AIMP1 with 0.5 ug HA-VC155-SMAD2 or -SMAD3 in the presence or absence of Myc-AIMP1 (0.1, 0.5 or 1 ug); read 24 h after transfection, fluorescent signals counted
[3] = biological target: T1, FLAG-VN173-AIMP1 (aminoacyl-tRNA synthetase-interacting multifunctional protein 1); test: split reporter; BiFC (Venus VN173 + VC155) in HEK293 cells co-transfected for 24 h; fluorescence images

Measured: binding

HA-VC155-SMAD2 (from UniProt Q15796 1-467)
binds: all assays above

HA-VC155-SMAD3 (from UniProt P84022 1-425)
binds: all assays above
